According to PubChem BioAssay AID493014 (National Center for Advancing Translational Sciences (NCATS), 2011):
The list shows a part of the results. Shown are side measurements of this screen, not its main read-out; they come without a call. The list favours compounds with an active or inconclusive main result. The note in brackets gives the kind of curve behind each potency; many fits are weak.

Assay: qHTS Assay to Find Inhibitors of Chronic Active B-Cell Receptor Signaling
Conditions: ABC-DLBCL IkBa-CBG/CBR reporter, luminescence ratio (green luciferase fused to IkBa over red control in TMD8 lymphoma cells), 4 h
Method in brief: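 TMD8 human ABC-DLBCL cells with doxycycline-inducible IκBα–green luciferase fusion and unfused red luciferase, in 0.5% FBS medium; compounds up to 46 uM, 4 h at 37C. Green/red luminescence ratio, filter-overlap corrected, fitted to concentration-response curves.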

[1] = measured here: CBR red luminescence, cell number

| SMILES | AC50 [1] | AC50 (measured here: IkBa-CBG green luminescence) |
| --- | --- | --- |
| Cc1cc(NC(=O)CSc2nccn2-c2cccc(C)c2C)no1 | 11.2 µM [falling, partial curve, poor fit] | – |
| O=C(CCl)N1c2ccccc2OCC1c1ccccc1 (configuration not stated) | 11.6 µM [falling, single point] | – |
| COc1ccccc1-c1cc(C(=O)N2CCN(S(=O)(=O)c3ccc(C)cc3)CC2)[nH]n1 | 3.98 µM [falling, full curve, poor fit] | – |
| O=C(O)C(Cc1cc(Cl)ccc1Cl)Sc1nc2ccccc2[nH]1 (configuration not stated) | 15.8 µM [falling, single point] | – |
| Brc1ccc(Nc2nc(-c3cccnc3)cs2)cc1 | 35.5 µM [falling, single point] | – |
| CCc1sc(C(=O)Nc2nccs2)cc1C | 11.2 µM [falling, single point] | – |
| O=C(O)Cc1ccc(N=Nc2c(O)c(C(=O)O)cc3ccccc23)cc1 | 7.08 µM [falling, partial curve, poor fit] | – |
| O=C(NCc1ccco1)c1ccc2c(c1)C(=O)c1ccccc1-2 | 20.6 µM [falling, single point] | – |
| Cc1noc(C)c1CSCC(=O)Nc1nc2ccc(F)cc2s1 | 20.6 µM [falling, single point] | – |
| Sc1oc(-c2ccccc2)cc1C=Nc1ccccc1 | 6.51 µM [rising, single point] | – |
| Cc1ccc2c(c1)C(=O)C(=O)N2Cc1ccc(Cl)cc1 | 23.1 µM [falling, partial curve, poor fit] | 18.4 µM [falling, single point] |
| O=C(CCN1C(=O)C2C3CC(C(Br)C3Br)C2C1=O)OCC(=O)c1cccc([N+](=O)[O-])c1 (configuration not stated) | 7.94 µM [rising, partial curve, poor fit] | – |
| O=C(Nc1nnc(-c2ccncc2)s1)Nc1ccccc1F | 1 µM [falling, full curve] | – |
| Fc1ccc(Nc2nc(NCc3ccco3)c3ccccc3n2)cc1 | 0.891 µM [rising, full curve] | – |
| COc1ccccc1NC(=O)c1ccc(NC(=O)CSc2nc(N)cc(=O)[nH]2)cc1 | 5.17 µM [rising, partial curve, poor fit] | – |
| O=C(O)C(=O)Cc1c[nH]c2ccccc12 | 5.17 µM [falling, partial curve, poor fit] | – |
| Cc1ccc(NC(=O)C(C)c2cccc(C(=O)c3ccccc3)c2)cc1 (configuration not stated) | 35.5 µM [falling, single point] | – |
| CC(CN1CCNCC1)(NS(=O)(=O)c1ccccc1)c1ccccc1 (configuration not stated) | 29.1 µM [falling, single point] | – |
| CN1CCN(c2ccc(S(=O)(=O)N3CCCCC3)cc2NC(=O)c2ccc(C#N)cc2)CC1 | 6.51 µM [falling, partial curve, poor fit] | – |
| CCOC(=O)Cn1c(=NC(=O)c2nc3ccccc3s2)sc2cc(S(N)(=O)=O)ccc21 | 2.91 µM [rising, partial curve, poor fit] | – |
| N#Cc1c2n(c3c(=O)n(Cc4ccccc4Cl)cnc13)CCCCC2 | 5.62 µM [rising, single point] | – |

| SMILES | AC50 [1] | AC50 (measured here: IkBa-CBG green luminescence) |
| --- | --- | --- |
| N=C1/C(=C\c2coc3ccccc3c2=O)C(=O)N=C2SC(c3ccncc3)=NN12 | 2.82 µM [rising, partial curve, poor fit] | – |
| CCCCCC(=O)Nc1cccc(C2=NOC3(C2)C[C@H](C(N)=O)N(C(=O)c2ccccc2)C3)c1 (some centres not stated) | 20 µM [rising, partial curve, poor fit] | – |
| CCOC(=O)/C=C1\NC(C)(C)Cc2cc(OC)c(OC)cc21 | 35.5 µM [rising, single point] | – |
| O=C(Cc1ccccc1)NCC(=O)OC(c1ccccc1)c1ccccc1 | 0.708 µM [rising, full curve, poor fit] | – |
| CCOc1cccc2cc(C(=O)NCCC3=CCCCC3)c(=O)oc12 | 10 µM [falling, partial curve, poor fit] | – |
| COC(=O)c1sc(=S)n(-c2cc(F)ccc2F)c1N | 35.5 µM [rising, single point] | – |
| CCOc1ccccc1NC(=O)CNC(=O)c1nn(-c2ccc(OC)c(OC)c2)c(=O)c2ccccc12 | 22.4 µM [falling, single point] | – |
| COc1ccc(-c2nc(C#N)c(NCc3ccccc3Cl)o2)cc1OC | 29.1 µM [falling, single point] | – |
| Cc1cc(C)n(CC(O)Cn2c3ccc(Br)cc3c3cc(Br)ccc32)c(=O)n1 (configuration not stated) | 9.2 µM [falling, partial curve, poor fit] | – |
| C/C(=N\NC(=O)c1nnn(-c2nonc2N)c1-c1cccs1)c1ccc(C)cc1 | 7.08 µM [rising, full curve, poor fit] | – |
| CC(=C\C(=O)O)/C(=C/c1ccccc1)C(=O)O | 17.8 µM [rising, partial curve] | – |
| CCc1ccc(OCC(=O)OCC(=O)c2ccc3c(c2)NC(=O)CO3)cc1 | 29.1 µM [rising, single point] | – |
| CC(NC(=O)[C@H](NC(=O)[C@@H]1Cc2ccccc2CN1)c1ccccc1)c1ccccc1 (some centres not stated) | 11.2 µM [falling, partial curve, poor fit] | – |
| O=C(Nc1ccc(S(=O)(=O)N2CCCC2)cc1)c1ccc(Cl)nc1 | 14.6 µM [falling, partial curve] | – |
| COc1ccccc1C(=O)Nc1nnc(-c2ccc(F)cc2)o1 | 0.0082 µM [falling, full curve, poor fit] | – |
| CC(C)CCNC(=O)C(=O)Nc1ccccc1 | 2 µM [falling, full curve] | – |
| CC(/C=N/NC(=O)c1ccc(Cn2cc([N+](=O)[O-])cn2)o1)=C\c1ccccc1 | 1.12 µM [falling, partial curve, poor fit] | – |
| c1ccc(-c2ccc(-c3csnn3)cc2)cc1 | 11.2 µM [rising, partial curve, poor fit] | – |
| CC(=O)c1ccc(Sc2ccccc2N)c([N+](=O)[O-])c1 | 8.91 µM [rising, partial curve, poor fit] | – |
| CCOc1ccc(S(=O)(=O)NCCC(=O)OCC(=O)c2ccc[nH]2)cc1 | 1.26 µM [rising, full curve, poor fit] | – |

Full records from above. Order of values: AC50 [1]	AC50 (measured here: IkBa-CBG green luminescence)
COc1ccc(-c2nc(C#N)c(NCc3ccccc3Cl)o2)cc1OC is listed as 29.1 µM [falling, single point]	–
O=C(Cc1ccccc1)NCC(=O)OC(c1ccccc1)c1ccccc1 is listed as 0.708 µM [rising, full curve, poor fit]	–
